Laboratory results reported in article PMC12229037.
No constants are given. Whether binding was seen depends on the method and setting. Binding seen in cells or lysates may run through a third protein. Some binding calls cover weakened binding; strength is not graded here.

By UniProt entry, the sequences of proteins in these tests, tags left out. Where a name states a change or a piece, a line headed by the entry shows the natural chain unless it says otherwise. Residues count along the entry.
UniProt Q09472: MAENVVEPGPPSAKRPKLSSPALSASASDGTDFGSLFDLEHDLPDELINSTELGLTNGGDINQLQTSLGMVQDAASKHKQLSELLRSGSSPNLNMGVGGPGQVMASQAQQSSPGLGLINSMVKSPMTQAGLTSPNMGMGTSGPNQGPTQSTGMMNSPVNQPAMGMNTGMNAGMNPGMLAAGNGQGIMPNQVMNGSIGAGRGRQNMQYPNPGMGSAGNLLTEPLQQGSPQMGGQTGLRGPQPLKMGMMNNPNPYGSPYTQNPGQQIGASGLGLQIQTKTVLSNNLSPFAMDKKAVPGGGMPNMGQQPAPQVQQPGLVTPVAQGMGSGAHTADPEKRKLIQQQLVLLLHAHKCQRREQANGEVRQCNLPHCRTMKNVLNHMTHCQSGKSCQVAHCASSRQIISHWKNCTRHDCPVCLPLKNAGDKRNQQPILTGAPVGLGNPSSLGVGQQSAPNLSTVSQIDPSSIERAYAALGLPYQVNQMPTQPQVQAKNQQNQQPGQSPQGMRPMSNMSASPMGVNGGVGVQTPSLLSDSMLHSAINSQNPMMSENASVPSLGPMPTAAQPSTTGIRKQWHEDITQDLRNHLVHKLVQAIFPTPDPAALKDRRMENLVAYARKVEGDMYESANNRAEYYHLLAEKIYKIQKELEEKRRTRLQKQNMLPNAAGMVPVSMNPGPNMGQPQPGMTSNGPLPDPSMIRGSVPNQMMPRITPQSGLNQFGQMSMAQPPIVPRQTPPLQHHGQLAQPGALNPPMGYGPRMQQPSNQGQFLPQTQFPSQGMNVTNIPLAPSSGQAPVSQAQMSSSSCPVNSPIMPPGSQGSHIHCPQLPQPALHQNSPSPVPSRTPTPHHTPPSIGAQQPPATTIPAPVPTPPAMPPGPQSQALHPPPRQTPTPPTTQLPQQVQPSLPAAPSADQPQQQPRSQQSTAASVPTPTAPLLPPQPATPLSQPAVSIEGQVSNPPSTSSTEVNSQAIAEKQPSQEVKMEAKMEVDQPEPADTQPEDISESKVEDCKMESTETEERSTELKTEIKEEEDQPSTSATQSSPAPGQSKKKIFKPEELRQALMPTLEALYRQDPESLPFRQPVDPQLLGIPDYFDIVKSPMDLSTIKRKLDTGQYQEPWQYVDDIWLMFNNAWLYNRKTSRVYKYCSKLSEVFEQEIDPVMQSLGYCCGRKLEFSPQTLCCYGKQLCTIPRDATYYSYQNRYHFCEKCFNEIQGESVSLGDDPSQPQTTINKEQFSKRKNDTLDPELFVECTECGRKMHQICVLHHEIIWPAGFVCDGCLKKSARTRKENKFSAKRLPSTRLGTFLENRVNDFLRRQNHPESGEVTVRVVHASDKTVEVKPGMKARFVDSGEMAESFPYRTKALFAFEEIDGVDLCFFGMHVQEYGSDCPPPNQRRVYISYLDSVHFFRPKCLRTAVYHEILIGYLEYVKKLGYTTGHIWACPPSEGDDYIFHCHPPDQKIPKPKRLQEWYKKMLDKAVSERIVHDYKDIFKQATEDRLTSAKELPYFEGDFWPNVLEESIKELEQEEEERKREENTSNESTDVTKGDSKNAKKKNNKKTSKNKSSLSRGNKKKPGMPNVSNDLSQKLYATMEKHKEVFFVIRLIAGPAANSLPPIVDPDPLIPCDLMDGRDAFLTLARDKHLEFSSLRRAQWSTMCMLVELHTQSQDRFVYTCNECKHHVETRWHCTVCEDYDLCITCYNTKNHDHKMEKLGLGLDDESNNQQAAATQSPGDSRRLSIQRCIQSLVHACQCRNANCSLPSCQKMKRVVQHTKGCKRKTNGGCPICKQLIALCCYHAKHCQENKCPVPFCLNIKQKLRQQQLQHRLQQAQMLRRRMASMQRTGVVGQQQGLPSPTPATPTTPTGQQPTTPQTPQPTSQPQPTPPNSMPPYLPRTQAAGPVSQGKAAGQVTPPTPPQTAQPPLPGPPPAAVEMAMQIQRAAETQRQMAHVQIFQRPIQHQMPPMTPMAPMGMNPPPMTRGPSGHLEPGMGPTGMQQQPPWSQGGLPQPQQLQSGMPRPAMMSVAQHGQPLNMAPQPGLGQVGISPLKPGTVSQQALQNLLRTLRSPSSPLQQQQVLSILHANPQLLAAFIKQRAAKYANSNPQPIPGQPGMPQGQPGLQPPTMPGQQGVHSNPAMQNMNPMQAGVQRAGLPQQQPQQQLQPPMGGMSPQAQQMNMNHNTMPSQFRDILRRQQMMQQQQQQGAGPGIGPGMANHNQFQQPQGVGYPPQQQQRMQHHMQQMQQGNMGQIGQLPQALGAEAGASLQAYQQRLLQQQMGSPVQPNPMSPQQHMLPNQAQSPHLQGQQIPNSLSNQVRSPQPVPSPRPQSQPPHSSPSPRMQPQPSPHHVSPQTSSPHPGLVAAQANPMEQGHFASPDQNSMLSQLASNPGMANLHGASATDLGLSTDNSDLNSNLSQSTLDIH
GST-p300 aa1-450: residues 1-450 of Q09472
GST-p300 aa1514-1922: residues 1514-1922 of Q09472
UniProt O14744: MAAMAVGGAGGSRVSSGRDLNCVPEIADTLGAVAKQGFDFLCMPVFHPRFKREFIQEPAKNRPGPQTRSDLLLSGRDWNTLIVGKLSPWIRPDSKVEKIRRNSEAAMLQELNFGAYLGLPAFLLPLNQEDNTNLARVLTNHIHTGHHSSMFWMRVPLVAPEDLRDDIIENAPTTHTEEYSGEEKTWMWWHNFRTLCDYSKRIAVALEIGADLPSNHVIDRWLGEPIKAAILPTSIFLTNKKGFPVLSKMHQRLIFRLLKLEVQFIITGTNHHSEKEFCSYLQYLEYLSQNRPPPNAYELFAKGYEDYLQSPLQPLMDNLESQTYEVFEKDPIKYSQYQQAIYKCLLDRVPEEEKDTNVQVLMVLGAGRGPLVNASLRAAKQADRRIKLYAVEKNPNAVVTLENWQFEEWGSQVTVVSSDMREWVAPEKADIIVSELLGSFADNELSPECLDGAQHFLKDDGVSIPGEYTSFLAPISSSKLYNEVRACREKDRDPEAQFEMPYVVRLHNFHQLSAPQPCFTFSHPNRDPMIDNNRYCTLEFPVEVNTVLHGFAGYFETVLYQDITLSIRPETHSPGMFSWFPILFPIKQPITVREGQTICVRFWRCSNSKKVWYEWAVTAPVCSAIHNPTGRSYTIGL

Key:
p300 (human) = p300 (human) (UniProt Q09472); assay: co-IP; nuclear extracts of HEK293T cells transfected with PRMT5 or PRMT5 mutant; p300 immunoprecipitated (antibody agarose, 2 h, four washes), Western blotting
GST-p300 aa1-450 (human) = GST-p300 aa1-450 (human) (UniProt Q09472); assay: pull-down; GST-p300 fragments on glutathione-Sepharose 4B beads; 4 °C, 2 h, four washes; PRMT5 [35S]radiolabeled by in vitro translation or His6 fusion protein detected by anti-His blot (methods); only the target purified
[1] = target: GST-p300 aa1514-1922 (human) (UniProt Q09472); assay: as above

binding (p300 (human)) | binding (GST-p300 aa1-450 (human)) | binding [1] | Substance
binds |  |  | PRMT5 point mutant (G367A), which lacks methyltransferase activity, Myc-tagged (from UniProt O14744 1-637) (enzyme)
 | binds | binds | PRMT5 used in the GST pull-down (from UniProt O14744 1-637) (enzyme)
